Test system: HepG2 cells
Experiment: Amino acid consumption of HepG2 cells after IL-6 stimulation in complete medium (HPLC of media)
Type: cell-based, human
Details: for Concentration of amino acids in RPMI-1640 media: n = 6; for change in concentration of amino acid in the media: 0 to 24 h
[1] = T = 24 h, HepG2 cells after IL-6 stimulation
[2] = HepG2 cells after IL-6 stimulation

| Compound | Concentration of amino acids in RPMI-1640 media (T = 0 h) | Concentration of amino acids in RPMI-1640 media [1] | change in concentration of amino acid in the media [2] |
| --- | --- | --- | --- |
| NCCCC[C@H](N)C(=O)O [Lys, lysine] | 202 ± 13 µM | 181 ± 11 µM |  |
| CSCC[C@H](N)C(=O)O [Met, methionine] | 362 ± 11 µM | 360 ± 16 µM |  |
| N[C@@H](CO)C(=O)O [Ser, serine] | 356 ± 14 µM | 344 ± 17 µM |  |
| NC(=O)C[C@H](N)C(=O)O [Asn, asparagine] | 358 ± 17 µM | 331 ± 15 µM |  |
| N[C@@H](CCC(=O)O)C(=O)O [Glu, glutamic acid] | 408 ± 20 µM | 465 ± 23 µM | significant increase |
| N[C@@H](Cc1c[nH]c2ccccc12)C(=O)O [Trp, tryptophan] | 253 ± 8 µM | 248 ± 11 µM |  |
| C[C@H](N)C(=O)O [Ala, alanine] | 213 ± 5 µM | 144 ± 8 µM | decrease |
| N=C(N)NCCC[C@H](N)C(=O)O [Arg, arginine] | 292 ± 11 µM | 267 ± 12 µM |  |
| CC(C)C[C@H](N)C(=O)O [Leu, leucine] | 368 ± 8 µM | 277 ± 10 µM | decrease |
| CC(C)[C@H](N)C(=O)O [Val, valine] | 383 ± 15 µM | 328 ± 13 µM | decrease |
| NCC(=O)O [Gly, glycine] | 661 ± 40 µM | 607 ± 37 µM |  |
| N[C@@H](Cc1ccccc1)C(=O)O [Phe, phenylalanine] | 326 ± 16 µM | 298 ± 13 µM |  |
| NC(=O)CC[C@H](N)C(=O)O [Gln, glutamine] | 392 ± 14 µM | 212 ± 3 µM | decrease |
| CC[C@H](C)[C@H](N)C(=O)O [Ile, isoleucine] | 426 ± 12 µM | 324 ± 11 µM | decrease |
| N[C@@H](CC(=O)O)C(=O)O [Asp, aspartic acid] | 377 ± 18 µM | 339 ± 15 µM | decrease |
| N[C@@H](Cc1c[nH]cn1)C(=O)O [His, histidine] | 278 ± 7 µM | 260 ± 12 µM |  |
| N[C@@H](Cc1ccc(O)cc1)C(=O)O [Tyr, tyrosine] | 274 ± 12 µM | 246 ± 24 µM |  |
| C[C@@H](O)[C@H](N)C(=O)O [Thr, threonine] | 327 ± 17 µM | 294 ± 13 µM |  |

From patent US20120252723A1, “Regulating the Amino Acid Pool Used for the Acute-Phase Protein Synthesis” (N.V. Nutricia, priority 2009, published 2012)
